In article PMC10817901:
No constants are given. Whether binding was seen depends on the method and setting.

Key:
[1] = target: T1, MARC-3 C-terminal cytoplasmic region (MARC-3C, 179-431 aa) (C. elegans) (UniProt Q93227); assay: two-hybrid; DupLEX-A Yeast Two-Hybrid System; MARC-3 regions as bait (pEG202), other proteins as prey (pJG4-5); yeast EGY48 with the lacZ reporter pSH18-34; X-gal plates
T1 sequence: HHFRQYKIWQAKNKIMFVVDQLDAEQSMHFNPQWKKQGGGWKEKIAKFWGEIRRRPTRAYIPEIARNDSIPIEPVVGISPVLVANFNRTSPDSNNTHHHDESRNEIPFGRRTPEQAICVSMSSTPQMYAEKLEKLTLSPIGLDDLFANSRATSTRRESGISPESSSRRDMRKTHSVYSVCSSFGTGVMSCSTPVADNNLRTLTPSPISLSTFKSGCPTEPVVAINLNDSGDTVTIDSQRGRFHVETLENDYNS

[2] = target: T2, MARC-3 N-terminal cytoplasmic region (MARC-3N, 1-98 aa) (C. elegans) (UniProt Q93227); assay: as above
T2 sequence: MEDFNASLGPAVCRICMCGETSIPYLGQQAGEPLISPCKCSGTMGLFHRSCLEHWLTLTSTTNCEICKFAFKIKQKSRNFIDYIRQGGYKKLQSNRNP

Substance: MBK-2 (full length isoform a, 1-508 aa) (C. elegans) (enzyme)
- binding [1]: no binding
- binding [2]: no binding
